Assay results: publication PMC4330392
Results are given in words; binding and its absence hold for the method and conditions named. For some assays here: In cells and extracts the contact can be indirect. Some entries that bind do so weakly or less than the wild type.

The chains behind the UniProt entries cited, without tags or fusion partners. Where a name states a change or a piece, a line headed by the entry shows the natural chain unless it says otherwise. A line that says so, or that is headed by a name, gives the form on record, which may keep a tag or linker.
UniProt Q92466: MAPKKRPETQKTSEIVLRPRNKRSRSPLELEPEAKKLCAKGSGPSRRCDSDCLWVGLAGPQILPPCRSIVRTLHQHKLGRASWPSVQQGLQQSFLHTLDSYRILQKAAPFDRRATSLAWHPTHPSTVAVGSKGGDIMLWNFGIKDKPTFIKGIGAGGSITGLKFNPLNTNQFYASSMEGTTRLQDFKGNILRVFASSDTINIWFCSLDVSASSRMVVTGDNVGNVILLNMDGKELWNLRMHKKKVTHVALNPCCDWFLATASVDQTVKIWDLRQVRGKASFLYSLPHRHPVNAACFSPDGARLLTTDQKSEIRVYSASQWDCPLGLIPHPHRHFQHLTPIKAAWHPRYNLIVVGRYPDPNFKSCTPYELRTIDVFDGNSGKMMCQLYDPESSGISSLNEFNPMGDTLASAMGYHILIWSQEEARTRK
DDB2-BP5KR (recombinant) (Q92466, form named): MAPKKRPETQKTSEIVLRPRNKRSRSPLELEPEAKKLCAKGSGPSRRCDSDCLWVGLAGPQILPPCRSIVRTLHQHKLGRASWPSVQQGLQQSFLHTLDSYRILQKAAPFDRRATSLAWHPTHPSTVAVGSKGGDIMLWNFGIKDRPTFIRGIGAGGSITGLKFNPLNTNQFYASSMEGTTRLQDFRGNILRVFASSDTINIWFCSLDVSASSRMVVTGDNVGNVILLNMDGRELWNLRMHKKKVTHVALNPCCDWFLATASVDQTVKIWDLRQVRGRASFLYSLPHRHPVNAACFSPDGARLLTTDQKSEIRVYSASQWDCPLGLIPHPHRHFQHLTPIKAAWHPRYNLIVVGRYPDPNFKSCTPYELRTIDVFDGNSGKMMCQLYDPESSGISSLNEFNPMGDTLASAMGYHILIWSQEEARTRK
DDB2-Ndel/BP5KR (recombinant) (Q92466, form named): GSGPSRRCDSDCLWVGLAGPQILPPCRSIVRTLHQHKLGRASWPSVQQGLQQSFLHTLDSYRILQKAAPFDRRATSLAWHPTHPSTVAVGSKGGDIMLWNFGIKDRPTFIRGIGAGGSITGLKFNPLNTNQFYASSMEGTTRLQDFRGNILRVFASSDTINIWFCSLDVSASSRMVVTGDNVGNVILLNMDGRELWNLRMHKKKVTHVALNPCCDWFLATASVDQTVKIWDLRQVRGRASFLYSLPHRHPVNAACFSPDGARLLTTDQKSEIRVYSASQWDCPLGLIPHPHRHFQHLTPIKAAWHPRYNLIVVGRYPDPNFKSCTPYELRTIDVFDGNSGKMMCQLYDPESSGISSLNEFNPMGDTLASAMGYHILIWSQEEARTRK
UniProt Q16531: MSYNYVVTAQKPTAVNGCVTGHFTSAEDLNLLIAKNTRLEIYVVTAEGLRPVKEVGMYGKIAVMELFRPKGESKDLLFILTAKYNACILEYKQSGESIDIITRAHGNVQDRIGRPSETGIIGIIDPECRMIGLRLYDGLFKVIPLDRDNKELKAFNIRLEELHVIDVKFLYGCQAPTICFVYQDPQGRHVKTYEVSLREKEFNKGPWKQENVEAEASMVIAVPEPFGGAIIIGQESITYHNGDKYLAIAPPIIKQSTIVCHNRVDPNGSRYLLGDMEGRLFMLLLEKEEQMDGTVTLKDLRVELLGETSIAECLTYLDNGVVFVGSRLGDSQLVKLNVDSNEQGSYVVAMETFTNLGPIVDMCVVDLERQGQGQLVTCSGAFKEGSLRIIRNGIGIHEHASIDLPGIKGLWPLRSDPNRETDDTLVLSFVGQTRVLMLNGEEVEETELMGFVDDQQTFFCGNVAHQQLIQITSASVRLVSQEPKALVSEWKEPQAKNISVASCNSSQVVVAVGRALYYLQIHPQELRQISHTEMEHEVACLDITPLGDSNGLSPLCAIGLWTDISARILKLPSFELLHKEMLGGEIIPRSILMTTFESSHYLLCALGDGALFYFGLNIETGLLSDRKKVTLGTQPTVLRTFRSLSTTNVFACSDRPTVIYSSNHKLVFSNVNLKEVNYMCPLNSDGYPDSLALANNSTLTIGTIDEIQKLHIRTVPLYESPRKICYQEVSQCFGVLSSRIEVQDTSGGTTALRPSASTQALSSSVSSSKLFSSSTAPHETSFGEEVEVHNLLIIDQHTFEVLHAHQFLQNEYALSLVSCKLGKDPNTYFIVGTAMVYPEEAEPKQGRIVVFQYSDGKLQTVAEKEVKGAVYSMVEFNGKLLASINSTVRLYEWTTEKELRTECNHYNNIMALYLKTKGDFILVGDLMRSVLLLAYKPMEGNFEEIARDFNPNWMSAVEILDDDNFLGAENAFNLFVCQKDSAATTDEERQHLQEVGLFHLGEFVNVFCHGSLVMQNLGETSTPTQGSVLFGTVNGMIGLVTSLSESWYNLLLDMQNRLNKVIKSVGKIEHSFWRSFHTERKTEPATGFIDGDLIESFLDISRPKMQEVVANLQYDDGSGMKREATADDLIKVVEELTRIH
UniProt Q13619: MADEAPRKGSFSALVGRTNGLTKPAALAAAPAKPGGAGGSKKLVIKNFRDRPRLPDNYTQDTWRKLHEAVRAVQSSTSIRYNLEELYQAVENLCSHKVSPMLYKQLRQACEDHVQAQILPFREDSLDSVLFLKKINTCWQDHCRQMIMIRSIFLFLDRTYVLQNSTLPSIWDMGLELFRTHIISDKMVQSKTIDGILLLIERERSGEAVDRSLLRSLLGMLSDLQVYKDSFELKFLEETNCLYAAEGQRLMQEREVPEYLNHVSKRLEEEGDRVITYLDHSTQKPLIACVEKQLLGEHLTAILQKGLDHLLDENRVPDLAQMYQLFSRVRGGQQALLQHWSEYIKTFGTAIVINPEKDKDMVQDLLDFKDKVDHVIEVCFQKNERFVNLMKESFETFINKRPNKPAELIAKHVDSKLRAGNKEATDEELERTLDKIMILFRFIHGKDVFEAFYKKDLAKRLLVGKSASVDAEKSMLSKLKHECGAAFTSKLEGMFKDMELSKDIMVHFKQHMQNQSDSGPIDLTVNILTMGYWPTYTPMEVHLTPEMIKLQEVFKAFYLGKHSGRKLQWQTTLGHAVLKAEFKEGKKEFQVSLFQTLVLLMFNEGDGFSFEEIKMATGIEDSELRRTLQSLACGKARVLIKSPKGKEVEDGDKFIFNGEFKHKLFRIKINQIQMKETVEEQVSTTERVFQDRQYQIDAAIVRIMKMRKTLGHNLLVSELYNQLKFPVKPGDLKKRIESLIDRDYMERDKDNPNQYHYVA

Assays:
[1] = target: HA-tagged DDB2 lacking the N-terminal 40 amino acids (human) (UniProt Q92466); test: co-IP; data not shown; co-immunoprecipitation of CUL4A with HA-DDB2 from WI38 VA13 transformants
[2] = target: HA-tagged wild-type DDB2 (human) (UniProt Q92466); test: as above
[3] = target: HA-tagged DDB2 lacking the N-terminal 40 amino acids (human) (UniProt Q92466); test: co-IP; soluble extracts (CSK buffer with 0.3 M NaCl) of WI38 VA13 cells stably expressing HA-DDB2, anti-HA (3F10) agarose beads overnight at 4°C, washed with CSK buffer with 0.3 M NaCl, eluted with SDS sample buffer
[4] = target: HA-tagged wild-type DDB2 (human) (UniProt Q92466); test: as above
[5] = target: FLAG-DDB1 (UniProt Q16531); test: SEC; FLAG-DDB1–DDB2 complex (30 μg) incubated on ice for 1 h with 90 μg CUL4A–RBX1 complex, Superdex 200 PC 3.2/30 in 40 mM Tris–HCl pH 7.5, 1 mM EDTA, 0.1 M NaCl, 10% glycerol, 0.01% Triton X-100, 1 mM DTT; fractions containing the four subunits determined by SDS-PAGE and silver staining; both purified

Row | binding [5] | Substance | further results
1 | binds | DDB2-BP5KR (recombinant) (from UniProt Q92466 1-427) | –
2 | binds | DDB2-Ndel/BP5KR (recombinant) (from UniProt Q92466 41-427) (domain or fragment) | –

Further lines, the substance ahead of its results:

Row | Substance | binding [5] | further results
3 | CUL4A (from UniProt Q13619 1-759) | – | binding [1]: binds
4 | CUL4A (from UniProt Q13619 1-759) (other; other documents disagree on this pair) | – | binding [2]: binds
5 | DDB1 (from UniProt Q16531 1-1140) | – | binding [3]: binds; binding [4]: binds
6 | DDB2 wild type (recombinant) (from UniProt Q92466 1-427) | binds | –
7 | DDB2-Ndel (recombinant) (from UniProt Q92466 41-427) (domain or fragment) | binds | –
